Data as given in the supplement of paper PMC6289059.
Where “and” joins values, the source holds several entries; their conditions need not be identical. Equal entries are not always repeated. Some of the results follow. Single values are uncertain, as repeats are few or missing.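 Hepatocyte-like cells derived from human stem cells with CRISPR-disrupted DGUOK model liver mtDNA depletion syndrome. Each well's ATP signal was scored against other wells on the same plate, and drugs scoring 3 or above were primary hits.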

Each compound was assayed on DGUOK Δ14/Δ5 iPSC-derived hepatocyte-like cells (SV20) (assay: ATP level (CellTiter-Glo luminescence) Z score relative to plate distribution, under 2-DG glycolysis block; higher = more cellular ATP (rescue of mitochondrial ATP production)). Settings: 5 µM; treatment time: day 15 to day 20 of differentiation (5 days); 2-deoxy-D-glucose: 20 mM for 24 h before assay.
In the case of `Nc1ncnc2c1ncn2[C@@H]1O[C@H](COP(=O)(O)O)[C@@H](O)[C@H]1O`, the ATP level is reported as inactive: 1.54.
For `S=C=Nc1ccc(N=C=S)cc1`, the ATP level was inactive: 0.643.
In the case of `CCCCC(=O)O[C@]1(C(=O)CO)[C@@H](C)C[C@H]2[C@@H]3CCC4=CC(=O)C=C[C@]4(C)[C@@]3(F)[C@@H](O)C[C@@]21C`, the ATP level is reported as inactive: 1.43.
In the case of `CC(=O)OCC(=O)[C@@]1(O)CC[C@H]2[C@@H]3CCC4=CC(=O)CC[C@]4(C)[C@H]3C(=O)C[C@@]21C`, the ATP level is reported as inactive: 0.186.
For `COc1cc(C(=O)N2CCOCC2)cc(OC)c1OC`, the ATP level was inactive: 2.5.
With `COc1cc(O)c(C(C)=O)c(OC)c1` the ATP level was inactive: 0.119.
In the case of `CN(C)CCCOc1nn(Cc2ccccc2)c2ccccc12`, the ATP level is reported as inactive: -11.5.
For `CC(C)(O)CC[C@@H](O)[C@](C)(O)[C@H]1CC[C@@]2(O)C3=CC(=O)[C@@H]4C[C@@H](O)[C@@H](O)C[C@]4(C)[C@H]3CC[C@]12C`, the ATP level was inactive: 2.18.
For `Nc1ccc(S(=O)(=O)Nc2ccc(Cl)nn2)cc1`, the ATP level was inactive: -0.177.
In the case of `COC1=C(O)C(=O)c2c(cc3oc(C(C)=O)c(O)c3c2O)C1=O`, the ATP level is reported as active: 3.01.
`Oc1ccc(O)cc1` was tested, and the ATP level was inactive: -0.027.
In the case of `CC1(O)CCOC(=O)C1` (stereo unspecified), the ATP level is reported as inactive: 2.27.
For `CC1CCC(NC(=O)N(CCCl)N=O)CC1` (stereo unspecified), the ATP level was inactive: -0.866.
With `CC1=C2C(O)C(=O)OC3CC4C(C)(C)C(=O)C=C[C@]4(C)C(CC1)[C@]23C` (stereo partly specified) the ATP level was inactive: 2.36.
For `CC(=O)OCC(=O)[C@@]1(O)[C@@H](C)C[C@H]2[C@@H]3CCC4=CC(=O)C=C[C@]4(C)[C@@]3(F)[C@@H](O)C[C@@]21C`, the ATP level was inactive: 1.81.
With `CC(=O)Oc1ccc2c(c1OC(C)=O)OCC1(O)Cc3c(cc(OC(C)=O)c(OC(C)=O)c3OC(C)=O)C21` (stereo unspecified) the ATP level was inactive: 0.64.
With `C[C@@H]1C[C@H]2[C@@H]3C[C@H](F)C4=CC(=O)C=C[C@]4(C)[C@@]3(F)[C@@H](O)C[C@]2(C)[C@@]1(O)C(=O)CO` the ATP level was active: 3.39.
For `O=C(NC[C@H]1CN(c2ccc(N3CCOCC3=O)cc2)C(=O)O1)c1ccc(Cl)s1`, the ATP level was inactive: -3.24.
In the case of `O=C(O)Cc1ccc(-c2ccccc2)cc1`, the ATP level is reported as inactive: 2.02.
With `O=C(O)c1cn(-c2ccc(F)cc2)c2cc(N3CCNCC3)c(F)cc2c1=O` the ATP level was inactive: 0.15.
In the case of `CC[C@H](/C=C/[C@@H](C)[C@H]1CC[C@H]2[C@@H]3CC=C4C[C@@H](O)CC[C@]4(C)[C@H]3CC[C@]12C)C(C)C`, the ATP level is reported as inactive: 1.72.
For `CCCCCCCCCCCCCCCCCCOCC(O)CO` (stereo unspecified), the ATP level was inactive: 1.76.
`C[N+]1(C)CCC(OC(=O)C(O)(c2ccccc2)C2CCCC2)C1` (stereo unspecified) was tested, and the ATP level was inactive: 1.67.
`CC(=O)ON(CCN(OC(C)=O)OC(C)=O)OC(C)=O` was tested, and the ATP level was inactive: 1.63.
`CC1c2cccc(O)c2C(O)=C2C(=O)C3(O)C(O)=C(C(N)=O)C(=O)C(N(C)C)C3C(O)C21` (stereo unspecified) was tested, and the ATP level was inactive: -4.13.
For `CCCCCc1c2c(cc(O)c1C(=O)O)OC(=O)c1c(cc(OC)cc1C(=O)CCCC)O2`, the ATP level was inactive: 0.851.
`Clc1ccc(CCC(Cn2ccnc2)Sc2c(Cl)cccc2Cl)cc1` (stereo unspecified) was tested, and the ATP level was inactive: 2.65.
In the case of `N#Cc1ccc(C(c2ccc(C#N)cc2)n2cncn2)cc1`, the ATP level is reported as inactive: 0.942.
In the case of `COC1=C[C@@H](C)[C@@H]2C[C@H]3OC(=O)C[C@H]4C(C)=C(OC)C(=O)[C@H]([C@@]2(C)C1=O)[C@@]34C`, the ATP level is reported as inactive: -1.87.
In the case of `NCc1ccccc1CC(=O)N[C@@H]1C(=O)N2C(C(=O)O)=C(CSc3nnnn3CC(=O)O)CS[C@H]12`, the ATP level is reported as inactive: 0.487.
`N=C(NCCCCCCNC(=N)NC(=N)Nc1ccc(Cl)cc1)NC(=N)Nc1ccc(Cl)cc1` was tested, and the ATP level was inactive: -14.7.
With `CN1CCN(C2=Nc3ccccc3Oc3ccc(Cl)cc32)CC1` the ATP level was inactive: -2.31.
With `CC(C)CC(N)=O` the ATP level was inactive: 1.72.
`Oc1ccc2ccccc2c1` [beta-NAPHTHOL] was tested, and the ATP level was inactive: -0.207.
In the case of `CC(=O)Oc1ccccc1C(=O)Nc1ncc([N+](=O)[O-])s1`, the ATP level is reported as inactive: -4.14.
For `Cc1[nH]ccc2c1[nH]c1cc(=O)ccc12`, the ATP level was inactive: -0.00231 and inactive: -3.13.
With `CCN(CC)CCOC(=O)C1(C2CCCCC2)CCCCC1` the ATP level was inactive: -0.403.
In the case of `CCCCOCCOCCOCc1cc2c(cc1CCC)OCO2`, the ATP level is reported as inactive: -1.49.
For `O=c1cc(-c2ccccc2)oc2c(O)c(O)ccc12`, the ATP level was inactive: -1.62.
For `CCCCC(O)c1ccccc1` (stereo unspecified), the ATP level was active: 3.53.
`CC(N/C(=N\C#N)Nc1ccncc1)C(C)(C)C` (stereo unspecified) was tested, and the ATP level was inactive: 0.573.
`CC1(C)OC(=O)C(OCC2CC2)=C1c1ccc(S(C)(=O)=O)cc1` was tested, and the ATP level was inactive: 0.365.
In the case of `CC1=C(CCC(=O)O)c2cc3nc(cc4[nH]c(cc5[nH]c(cc1n2)c(C)c5C(C)O)c(C)c4C(C)O)C(C)=C3CCC(=O)O` (stereo unspecified), the ATP level is reported as inactive: -5.09.
In the case of `COc1ccc([C@@H]2CC(=O)c3c(O)cc(O)cc3O2)cc1O`, the ATP level is reported as inactive: 0.262.
`COc1cc(C(=O)OCCCN2CCCN(CCCOC(=O)c3cc(OC)c(OC)c(OC)c3)CC2)cc(OC)c1OC` was tested, and the ATP level was inactive: -2.38.
With `CC[N+](C)(CC)CCOC(=O)C(O)(c1ccccc1)C1CCCCC1` (stereo unspecified) the ATP level was inactive: -0.839.
With `CO[C@H]1C[C@H](O[C@H]2[C@H](C)O[C@@H](O[C@@H]3/C(C)=C/C[C@@H]4C[C@@H](C[C@]5(C=C[C@H](C)[C@@H](C6CCCCC6)O5)O4)OC(=O)[C@@H]4C=C(C)[C@@H](O)[C@H]5OC/C(=C\C=C\[C@@H]3C)[C@]54O)C[C@@H]2OC)O[C@@H](C)[C@@H]1O` the ATP level was inactive: -4.9.
With `CCCCCCCCCCCCCCCC(=O)OCC(O)CO` (stereo unspecified) the ATP level was inactive: 0.712.
For `O=S(=O)(O)c1cc(N=C=S)ccc1/C=C/c1ccc(N=C=S)cc1S(=O)(=O)O`, the ATP level was inactive: -0.556.
`NCCc1c[nH]cn1` was tested, and the ATP level was inactive: 1.54.
`CCCOc1cc(N)ccc1C(=O)OCCN(CC)CC` was tested, and the ATP level was inactive: -0.074.
For `OC(Cn1cncn1)(Cn1cncn1)c1ccc(F)cc1F`, the ATP level was inactive: 0.0748.
`Nc1[nH]cnc2ncnc1-2` was tested, and the ATP level was inactive: 1.71.
In the case of `CC(=O)[C@@]1(O)CC[C@H]2[C@@H]3C=C(Cl)C4=CC(=O)[C@@H]5C[C@@H]5[C@]4(C)[C@H]3CC[C@@]21C`, the ATP level is reported as inactive: -1.59.
For `CC[N+](C)(C)c1cccc(O)c1`, the ATP level was inactive: -0.607.
For `CC(C)CCC[C@@H](C)[C@H]1CC[C@H]2[C@@H]3CC=C4C[C@@H](OC(=O)CCC(=O)O)CC[C@]4(C)[C@H]3CC[C@]12C`, the ATP level was inactive: -1.3.
In the case of `COc1c(-c2coc3cc4c(cc3c2=O)CC(O)C(C)(C)O4)ccc2c1C=CC(C)(C)O2` (stereo unspecified), the ATP level is reported as inactive: -10.8.
With `Cc1cn[nH]c1` the ATP level was inactive: 0.513 and inactive: 0.999.
In the case of `CC(=O)OCC(=O)[C@@]1(O)CC[C@H]2[C@@H]3CCC4=CC(=O)C=C[C@]4(C)[C@@]3(Cl)[C@@H](Cl)C[C@@]21C`, the ATP level is reported as inactive: 0.477.
`FC(F)(F)C(Cl)Br` (stereo unspecified) was tested, and the ATP level was inactive: 1.47.
For `O=C(O)CN1C(=O)c2cccc3cccc(c23)C1=O`, the ATP level was inactive: 1.68.
In the case of `Cc1ccc(C(=O)c2ccc(CC(=O)O)n2C)cc1`, the ATP level is reported as inactive: -0.293.
`CCCCN(CCCC)CCCOC(=O)c1ccc(N)cc1` was tested, and the ATP level was inactive: -0.325.
`CC12CCC3C(CC3(C)C)C(C)(CCC1=O)O2` (stereo unspecified) was tested, and the ATP level was inactive: -1.85.
For `CC(=O)OCC(=O)[C@@]1(O)CC[C@H]2[C@@H]3CCC4=CC(=O)CC[C@]4(C)[C@@]3(F)[C@@H](O)C[C@@]21C`, the ATP level was inactive: 1.23.
For `CC(=O)O[C@@H]1C[C@H]2C(C)(C)C(=O)CC[C@]2(C)[C@H]2CC[C@@]3(C)[C@H](c4ccoc4)OC(=O)[C@H]4O[C@]43[C@@]21C`, the ATP level was inactive: -1.32.
In the case of `O=C(O)CCCCCCCC(=O)O`, the ATP level is reported as inactive: 0.62.
In the case of `NS(=O)(=O)c1cc(C2(O)NC(=O)c3ccccc32)ccc1Cl` (stereo unspecified), the ATP level is reported as inactive: -2.44.
With `CCCCCCCCCCCCCCCC(=O)OC/C=C(C)/C=C/C=C(C)/C=C/C1=C(C)CCCC1(C)C` the ATP level was inactive: -9.64.
In the case of `C=CC(N)CCC(=O)O` (stereo unspecified), the ATP level is reported as inactive: 2.73.
`CC(C)c1c(C(=O)Nc2ccccc2)c(-c2ccccc2)c(-c2ccc(F)cc2)n1CC[C@@H](O)C[C@@H](O)CC(=O)O` was tested, and the ATP level was inactive: 1.28.
For `Cc1ncc(C[n+]2csc(CCO)c2C)c(N)n1`, the ATP level was inactive: 0.766.
In the case of `CC(=O)OCC(=O)[C@@]1(O)CC[C@H]2[C@@H]3CCC4=CC(=O)CC[C@]4(C)[C@H]3[C@@H](O)C[C@@]21C`, the ATP level is reported as inactive: 2.34.
For `CCN[C@H]1CN(CCCOC)S(=O)(=O)c2sc(S(N)(=O)=O)cc21`, the ATP level was inactive: 1.42.
With `CC(=O)S[C@@H]1CC2=CC(=O)CC[C@]2(C)[C@H]2CC[C@@]3(C)[C@@H](CC[C@@]34CCC(=O)O4)[C@H]12` the ATP level was inactive: 0.412.
For `CCCc1cc(C(N)=S)ccn1`, the ATP level was inactive: 1.99.
In the case of `CC(Cc1cccc(C(F)(F)F)c1)NCCOC(=O)c1ccccc1` (stereo unspecified), the ATP level is reported as inactive: 0.771.
For `C=C1CC[C@H](O)C/C1=C/C=C1\CCC[C@]2(C)[C@@H]([C@H](C)CCCC(C)C)CC[C@@H]12`, the ATP level was inactive: 0.695.
In the case of `NNCCc1ccccc1`, the ATP level is reported as inactive: -0.413.
For `Cc1nccnc1N1CCCCC1`, the ATP level was inactive: 1.75.
In the case of `CC(C)(CO)[C@@H](O)C(=O)NCCC(=O)NCCSSCCNC(=O)CCNC(=O)[C@H](O)C(C)(C)CO`, the ATP level is reported as inactive: 0.927.
With `CN1CCN(CC/C=C2/c3ccccc3Sc3ccc(S(=O)(=O)N(C)C)cc32)CC1` the ATP level was inactive: -2.6.
With `CN1CCC(=C2c3ccccc3C=Cc3ccccc32)CC1` the ATP level was inactive: -6.27.
With `COc1ccc(-c2cc(=O)c3ccccc3o2)cc1` the ATP level was inactive: 1.41.
`N=C(N)NC(=N)NCCc1ccccc1` was tested, and the ATP level was inactive: -4.38.
`Cc1cccc(C)c1NC(=O)c1ccccc1C(=O)O` was tested, and the ATP level was inactive: 2.99.
